# Experimental data reported in PubChem BioAssay AID493014 (National Center for Advancing Translational Sciences (NCATS), 2011).
# About 170 (0.05%) of roughly 340,000 compounds were called active. The shares of active, inactive and inconclusive entries below differ from those in the screen. Calls come from the whole dose curve; as a rule, active = well fitted inhibition curve with a large enough effect in the signal ratio, with a control signal flat (not every such curve was filed as active); inconclusive = small, poorly fitted or top-dose-only effect, or effect the other way, or a change in a side signal; inactive = flat fitted curve, though single readings scatter; the % refers to the signal ratio. Where the call is inconclusive, the potency comes from a doubtful curve fit.
# Assay: qHTS Assay to Find Inhibitors of Chronic Active B-Cell Receptor Signaling;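 for activity change, negative = inhibition: plate controls were basal doxycycline-induced cells for no effect and cells given 10 µM MG132 for full effect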
# Conditions: ABC-DLBCL IkBa-CBG/CBR reporter, luminescence ratio (green luciferase fused to IkBa over red control in TMD8 lymphoma cells), 4 h; activity change, negative = inhibition: at 46.1 µM (top of the series)
# In short: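 Cell line TMD8 (human ABC DLBCL), stably expressing tet-inducible CBG68-IkBa fusion and CBR; IMDM/0.5% FBS; cpd up to 46 uM; dox induction, 4 h, 37C/5% CO2; dual luminescence; green/red ratio; MG132 control.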
# Potency is the fitted concentration of half-maximal effect.
SMILES,"activity change, negative = inhibition",Potency
COc1ccc2cc(CN(CC3COCCO3)S(=O)(=O)c3ccc(Cl)cc3)c(=O)[nH]c2c1 (centres undefined),inconclusive: 8.5%,–
CCn1c(SC(C)C(=O)O)nnc1-c1cccnc1 (centres undefined),inconclusive: 4.66%,–
Cc1ccccc1C(OCC(O)CN1CCCCC1CCO)c1ccccc1 (centres undefined),inconclusive: -2.59%,–
CC1CN(c2ccccc2)NC1=O (centres undefined),inactive: 0.105%,–
O=C(Nc1ccc2c(c1)OCO2)Nc1cnccn1,inactive: 2.69%,–
CC(C)N1CCC2(CC1)C(C#N)=C(N)NC(S)=C2C#N,inactive: 12%,–
O=C(C1=COCCO1)N1CCN(S(=O)(=O)c2cccc(F)c2)CC1,inconclusive: 4.51%,–
CC(NC(=O)COc1ccccc1)C(c1ccccc1)N1CCN(C)CC1 (centres undefined),inconclusive: -0.937%,–
CC(C)(C)c1ccc(NC(=O)Nc2ccc(OCC(=O)N3CCOCC3)cc2)cc1,–,"inconclusive: 35.5 µM [falling, single point]"
CN(C(=O)COC(=O)c1ccc2c(c1)OCO2)C1CCCCC1,inconclusive: 2.05%,–
COc1ccccc1/C=C1\SC(=O)N(CCC(=O)N2CCCCC2CCO)C1=O (centres undefined),–,"inconclusive: 20 µM [falling, partial curve]"
O=C(Nc1ccccc1N1CCCCC1)c1ccc(Cl)c([N+](=O)[O-])c1,inactive: 3.52%,–
COc1ccccc1/C=N/NC(=O)C(=O)Nc1ccccc1OC(F)(F)C(F)F,–,"inconclusive: 23.1 µM [falling, partial curve]"
CN(C)S(=O)(=O)Oc1ccsc1C(=O)Nc1ccccc1Cl,inactive: 9.68%,–
COc1ccc(NC(=O)c2cc3ccccc3o2)cc1OC,inactive: 0.866%,–
COc1ccccc1N(CC(=O)Nc1ccc(C)cc1Cl)S(=O)(=O)c1cccs1,inconclusive: -0.576%,–
CCN(CC)C(=O)COc1ccc2c(c1)C(=O)CC(C)(C)O2,inactive: -2.65%,–
COc1ccc(N=C2C(=Nc3ccc(OC)cc3)N(c3ccc(OC)cc3)C(=S)N2C)cc1,–,"inconclusive: 1.16 µM [rising, partial curve, poor fit]"
CCOc1ccccc1C1C(C(=O)Nc2ccccc2OC)=C(C)Nc2nc(CCCO)nn21 (centres undefined),inconclusive: -21.1%,–
CCOC(=O)NC(CC(=O)O)c1ccc(OC)c(OC)c1 (centres undefined),inconclusive: 3.69%,–
O=C(NCC(c1cccnc1)N1CCN(c2ccc(F)cc2)CC1)c1ccco1 (centres undefined),inactive: 11.3%,–

SMILES,"activity change, negative = inhibition",Potency
C=CCOC(=O)CC(NC(=O)c1ccccc1)c1ccccc1 (centres undefined),inconclusive: 0.18%,–
CC(=O)NC(Cc1c[nH]c2ccccc12)C(=O)OCC(=O)Nc1ccc2c(c1)OCO2 (centres undefined),inconclusive: 3.26%,–
Nc1nc(N2CCCCC2)c(C=O)c(N2CCCCC2)n1,inactive: 10.1%,–
CCCn1c(=S)[nH]c2ccccc2c1=O,inconclusive: 17.1%,–
CCCCCOc1ccc(C(=O)N(Cc2ccco2)C2CCS(=O)(=O)C2)cc1 (centres undefined),inactive: 2.49%,–
COc1ccccc1C(=O)Nc1nc2cc3c(cc2s1)OCCO3,–,"inconclusive: 22.4 µM [falling, partial curve]"
CC(CNC(=O)C1CCN(Cc2cc3ccccc3n2Cc2ccccc2)CC1)c1ccccc1 (centres undefined),inactive: -0.694%,–
c1ccc2c(c1)oc1c(NCc3ccc4c(c3)OCO4)ncnc12,inconclusive: -6.4%,–
Cn1cc(S(=O)(=O)NC2CCCC2)c(=O)n(C)c1=O,inconclusive: 4.36%,–
COc1cc(C(=S)N2CCOCC2)ccc1OC(=O)/C=C/c1ccco1,inactive: 11.9%,–
Cc1cccc(OCCCN2C(=O)C(=O)c3cc(C)ccc32)c1,inconclusive: 0.991%,–
COc1ccc(/C=N/NC(=O)c2ccc(Br)cc2)cc1Cn1cc(Cl)cn1,inconclusive: 14.9%,–
O=C(CCOc1ccccc1)Nc1ccc([N+](=O)[O-])cc1,inconclusive: 6.05%,–
COc1cc(NC(=O)CCS(=O)(=O)c2nc(-c3cccs3)cc(C(F)(F)F)n2)cc(OC)c1OC,–,"inconclusive: 20.6 µM [rising, single point]"
CCN1C(=O)[C@@H]2[C@@H](c3ccc(-c4ccccc4)cc3)N3CCC[C@@]3(C(=O)OC)[C@@H]2C1=O,inactive: -0.795%,–
O=C(CSc1nnc(COc2ccc(Cl)cc2)o1)NC1CC2CCC1C2 (centres undefined),–,"inconclusive: 35.5 µM [falling, single point]"
Cc1c(NS(=O)(=O)c2ccc(NCC3CCCO3)c([N+](=O)[O-])c2)c(=O)n(-c2ccccc2)n1C (centres undefined),inconclusive: 5.71%,–
COc1ccc2nc(N3CCCC(O)C3)c(C#N)cc2c1 (centres undefined),inconclusive: 3.83%,–
C/C(=N\NC(=O)CNC(=O)C(c1ccccc1)c1ccccc1)c1ccccc1,inconclusive: -9.72%,–
CCOc1ccccc1OC(=O)c1cc2ccccc2oc1=O,inconclusive: 0.341%,–
NC(=O)c1nc(N2CCOCC2)nc(N2CCOCC2)n1,–,"inconclusive: 5.8 µM [falling, partial curve, poor fit]"

SMILES,"activity change, negative = inhibition",Potency
COc1ccc(C/C(N)=N/OC(=O)c2cccs2)cc1,inconclusive: 5.36%,–
CCCC(=O)N/C(N)=N/c1nc(C)c2cc(C)ccc2n1,–,"inconclusive: 7.94 µM [falling, partial curve]"
O=C(NCC1CCCO1)C(c1cccs1)N(Cc1ccccc1Cl)C(=O)c1ccc(-c2ccccc2)[nH]1 (centres undefined),inactive: 5.01%,–
COC(=O)C1CCN(CC(=O)Nc2ccc(OC)c(Cl)c2)CC1,inconclusive: 4.33%,–
Cn1cc(CN2CCc3sccc3C2)c(-c2ccccc2F)n1,inconclusive: 13.5%,–
CCc1nc(C)cn1S(=O)(=O)c1cc(Cl)c(OC)cc1Cl,inconclusive: 0.333%,–
C#CCOCCOCCOCCNc1nc(N2CCN(C(=O)[C@H](CC(N)=O)n3cc(C(N)[C@@H](C)CC)nn3)CC2)nc(N2CCN(C(=O)[C@H](CCC(=O)O)n3cc([C@@H](N)CCCCN)nn3)CC2)n1 (some centres undefined),inactive: 0.3%,–
Cc1cccc(NC(=O)C(C)Sc2nc3ccccc3c(=O)n2CCCN2CCOCC2)c1 (centres undefined),inactive: 4.62%,–
O=C(NCc1ccncc1)c1cccc(S(=O)(=O)Nc2ccc(F)cc2)c1,inactive: 5.05%,–
COc1ccc(S(=O)(=O)N2CCOC23CCN(S(=O)(=O)c2ccccc2)CC3)cc1,inconclusive: 12.1%,–
O=C(CSC(=S)N1CCOCC1)c1cc2ccccc2oc1=O,–,"inconclusive: 11.2 µM [falling, partial curve]"
CC(OC(=O)c1ccc(S(=O)(=O)N2CCCCC2)cc1)C(=O)Nc1ccc(C(N)=O)cc1 (centres undefined),inconclusive: 6.04%,–
Cc1ccccc1OCC(=O)NC(=S)Nc1cccc2cc(O)ccc12,inactive: -0.0169%,–
O=C(C1CCCO1)N1CCN(C(=S)Nc2cc(F)cc(F)c2)CC1 (centres undefined),inconclusive: 0.713%,–
CCCCOc1ccc(C)cc1CN(CCO)CCO,inconclusive: 9.99%,–
O=C(CSc1nnc(-c2ccccn2)o1)Nc1cccc(Cl)c1,–,"inconclusive: 15.8 µM [falling, single point]"
CN(C)C(=O)CSc1nnc(CCN)o1,inconclusive: 3.62%,–
COc1ccc(-c2nnc(NC(=O)CSc3ccc(C)cc3)s2)cc1OC,inconclusive: 8.71%,–
Cc1cc(C(=O)Nc2ncc(C)s2)c2ccccc2n1,inconclusive: 5.34%,–
O=c1c(-c2ccco2)[n+]([O-])c2ccccc2n1OCc1ccccc1,inactive: 12.2%,–
O=[N+]([O-])c1ccccc1Oc1ccc(S(=O)(=O)N2CCOCC2)cc1,inactive: -11.9%,–

# Grouped by structure, the compounds so far containing two or more sulfur atoms.
SMILES,"activity change, negative = inhibition",Potency
CN(C)S(=O)(=O)Oc1ccsc1C(=O)Nc1ccccc1Cl,inactive: 9.68%,–
COc1ccccc1N(CC(=O)Nc1ccc(C)cc1Cl)S(=O)(=O)c1cccs1,inconclusive: -0.576%,–
COc1cc(NC(=O)CCS(=O)(=O)c2nc(-c3cccs3)cc(C(F)(F)F)n2)cc(OC)c1OC,–,"inconclusive: 20.6 µM [rising, single point]"
COc1ccc(S(=O)(=O)N2CCOC23CCN(S(=O)(=O)c2ccccc2)CC3)cc1,inconclusive: 12.1%,–
O=C(CSC(=S)N1CCOCC1)c1cc2ccccc2oc1=O,–,"inconclusive: 11.2 µM [falling, partial curve]"
COc1ccc(-c2nnc(NC(=O)CSc3ccc(C)cc3)s2)cc1OC,inconclusive: 8.71%,–

# (next part)

SMILES,"activity change, negative = inhibition",Potency
O=CN(/C=C1\Sc2ccccc2C1=O)Cc1ccccc1,–,"inconclusive: 4.61 µM [falling, single point]"
O=[N+]([O-])c1cc(Cl)ccc1NCCNS(=O)(=O)c1ccccc1,inconclusive: 7.98%,–
CC(=O)NC12CC3CC(C1)CC(C(=O)N(C)Cc1cccc(Cl)c1Cl)(C3)C2,–,"inconclusive: 20 µM [falling, partial curve, poor fit]"
Nc1cc(N)nc(SCc2cccnc2)n1,–,"inconclusive: 20.6 µM [falling, single point]"
COc1ccc(-c2csc(N3C(=O)CNC3=S)n2)cc1,inconclusive: 5.15%,–
CCCNC(=O)NC(=O)CSc1nnc(-c2c[nH]c3ccccc23)o1,–,"inconclusive: 17.8 µM [falling, single point]"
CC(C)CCNC(=S)Nc1ccccn1,inactive: 0.0847%,–
O=C(Nc1ccc(N2CCN(C(=O)c3ccccc3F)CC2)cc1)c1ncn[nH]1,inconclusive: 1.81%,–
O=C(CCN1C(=O)c2ccccc2S1(=O)=O)Nc1ccccc1F,–,"inconclusive: 11.2 µM [falling, partial curve]"
CCOc1ccc(/C=N/O)cc1,inconclusive: 1.98%,–
Oc1c(I)cc(Cl)c2cccnc12,–,"inconclusive: 14.6 µM [falling, partial curve, poor fit]"
CCCN1CCN(CCCNC(=O)CCN2C(=O)COc3ccccc32)CC1,inactive: -3.72%,–
Nc1ccccc1C(=O)NCC1(c2ccccc2)CCCC1,inconclusive: -8.29%,–
COc1cccc(/C=N/NC(=O)C(=O)N/N=C/c2cccc(OC)c2O)c1O,inactive: 3.86%,–
Cc1cc(-c2ccn[nH]2)c(C)s1,–,"inconclusive: 22.4 µM [falling, partial curve, poor fit]"
CCc1ccc(-n2c(SCC(=O)c3ccc4c(c3)NC(=O)CO4)nc3ccccc3c2=O)cc1,inconclusive: -1.51%,–
Cc1ccc(NC(=O)CC2OC(=O)c3ccccc32)cc1S(=O)(=O)N1CCOCC1 (centres undefined),inconclusive: -1.17%,–
CCCCc1nc(SCc2ccc([N+](=O)[O-])cc2)n[nH]1,inconclusive: 3.72%,–
O=C(N/N=C/C=C/c1ccccc1)c1cccnc1,–,"inconclusive: 35.5 µM [falling, single point]"
CC(C)c1ccc(-c2csc3ncnc(N4CCN(C)CC4)c23)cc1,inconclusive: -18.3%,–
C/C(=N\NC(=O)c1ccccc1)C1C2C=CC(C2)C1(C)C (centres undefined),–,"inconclusive: 6.31 µM [falling, full curve]"
